# Values of other authors, collected in US9278094B2, “Treatments for depression and other diseases with a low dose agent” (PharmoRx Therapeutics, Inc., priority 2013, dated 2016).
# At least one compound was matched to its structure with a doubt left.
# Columns and labels:
# leptin deficient animals = settings: in vivo; cited from earlier work
# type II diabetics = settings: in vivo; cited from earlier work
# [1] = test system: obese female human subjects; settings: dose of 2.5 mg; cited from earlier work
compound,measurement,setting,value
CC(C)C[C@H]1C(=O)N2CCC[C@H]2[C@]2(O)O[C@](NC(=O)[C@@H]3C=C4c5cccc6[nH]c(Br)c(c56)C[C@H]4N(C)C3)(C(C)C)C(=O)N12 [Bromocriptine],adiposity,leptin deficient animals,reduces
same,hyperphagia,leptin deficient animals,reduces
same,glycemic control,type II diabetics,improves
same,glucose levels,[1],reduces
same,insulin levels,[1],reduces
same,leptin levels,[1],reduces
